Measured values as given in US20020061552A1.
Results are given in words; binding and its absence hold for the method and conditions named. Binding seen in cells or lysates may run through a third protein. Some entries that bind do so weakly or less than the wild type. Sequences can lack the tags named with a protein.

Amino acid sequences for entries named in this document (tags omitted). Residues count along the entry.
UniProt P51140, residues 166-338: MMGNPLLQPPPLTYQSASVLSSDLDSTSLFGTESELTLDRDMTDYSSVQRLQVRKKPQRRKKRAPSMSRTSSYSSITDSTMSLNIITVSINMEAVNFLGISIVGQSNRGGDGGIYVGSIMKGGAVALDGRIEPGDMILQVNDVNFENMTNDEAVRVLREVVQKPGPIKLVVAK

How the values were obtained:
[1] = molecular target: GST fusion of the DM fragment of Drosophila Dvl (Drosophila) (UniProt P51140); assay: GST pull-down with fragments of Dvl
[2] = molecular target: GST fusion of the DM fragment of Drosophila Dvl (Drosophila) (UniProt P51140); assay: GST pull-down, electrophoresis and autoradiography
[3] = molecular target: GST fusion of the DM fragment of Drosophila Dvl (Drosophila) (UniProt P51140); assay: GST pull-down with fragments of Drosophila Dvl, Tris-Glycine gel

Measured: binding

B1: Myc-tagged mNkd protein, in vitro translated (protein, not shown: small tags and cut ends)
chain: MGKLHSKPAAVCKRRESPEGDSFAVSAAWARKGIEEWIGRQRCPGSVSGPRQLRLAGTVGRGTRELVGDTSREALGEEDEDDFPLEVALPPEKIDSLGSGDEKRMERLSEPGQASKKQLKFEELQCDVSVEEDSRQEWTFTLYDFDNNGKVTREDITSLLHTIYEVVDSSVNHSPTSSKTLRVKLTVAPDGSQSKRSVLFNHTDLQSTRPRADTKPAEELRGWEKKQRAPLRFQGDSHLEQPDCYHHCVDENIERRNHYLDLAGIENYTSQFGPGSPSVAQKSELPPRISNPTRSRSHEPEAAHIPHRRPQGVDPGSFHLLDTPFAKASELQQRLRGTQDGSKHFVRSPKAQGKNMGMGHGARGARSKPPLVPTTHTVSPSAHLATSPALLPTLAPLGHKKHKHRAKESQASCRGLQGPLAAGGSTVMGREQVRELPAVVVYESQAGQAVQRHEHHHHHHEHHHHYHHFYQP
modifications: labelled with 35S-methionine
binds: all assays above
